Laboratory results published in patent publication US20250171753A1, “PEPTIDE AND USE THEREOF IN THE PREVENTION OF THERAPY-RELATED LEUKEMIA” (UNIVERSITÄT ULM, priority 2022, published 2025).
Part of at least one peptide drawing is inferred or uncertain, most often the ends. Where no end group is shown, it is not given here.

What was measured:
Format in all cases: cell-based, human
[1] = system: MLLbcr rearrangements in HeLa/MLL cells; test: Fluorescence-based recombination assay for MLLbcr rearrangements in HeLa/MLL cells after doxorubicin
[2] = system: MLLbcr breakage in HeLa/MLL cells; test: Genomic PCR for MLL (Set2) and Intron20, analysis of DNA breakage at MLLbcr in HeLa/MLL cells; conditions: HeLa/MLL nucleofected with 75 μg per 0.5×10^6 cells; 0.5 μM doxorubicin 4 h
[3] = system: MLLbcr rearrangements in K562/MLL cells; test: Fluorescence-based (EGFP reconstitution) recombination assay for MLLbcr rearrangements in K562/MLL cells after doxorubicin; conditions: for recombination frequency compared to water: 72 h
Procedure: K562/MLL cells were divided 1:2 before the start of the experiment and transfected with the plasmid (2×10^6 cells) or nucleofected with the peptide (1×10^6 cells) on the second day. After 24 h, the cells were then treated with 2 μM doxorubicin (Uniklinik Ulm, Germany) and after 4 h incubation, the cells were centrifuged, the supernatant discarded and the cells taken up in 2 ml PBS (Gibco/Thermo Fisher Scientific). After centrifugation again, the supernatant was discarded and the cells were seeded in 2 ml of new culture medium for 72 h.
Use of the fluorescence-based assay system for recombination measurements with K562/MLL or HeLa/MLL cells with chromosomally integrated plasmid pHR-EGFP/3′EGFP-MLLbcr.fwd is described in detail in Ireno et al. 2014 and Gole et al. 2015, respectively. For the acquisition of recombination data, cells were harvested, pelleted, resuspended in PBS and then re-sedimented. The cell pellets were stored on ice and resuspended in PBS (mixed with 0.2% EDTA) only shortly before FACS measurement. This suspension was transferred to FACS tubes and the fluorescence of the cells was detected on the FACSCalibur™ (BD Biosciences, San Jose, California, USA). To achieve a separation between living and dead cells, the cell clouds were plotted linearly against FSC/SSC orientation in a dot plot diagram.

[4] = K562/MLL nucleofected with 50 μg peptide, 2 μM doxorubicin 4 h
[5] = K562/MLL nucleofected with 100 μg peptide, 2 μM doxorubicin 4 h

Row | Molecule | recombination frequency compared to water [3, 4] | recombination frequency compared to water [3, 5] | MLLbcr rearrangements in leukemia cells after doxorubicin treatment (summary statement) [3] | further results
1 | CC[C@H](C)[C@H](NC(=O)CNC(=O)[C@H](CC(=O)O)NC(=O)[C@H](CCC(N)=O)NC(=O)[C@@H](NC(=O)[C@@H](NC(=O)[C@@H](NC(=O)[C@@H](N)CCC(=O)O)[C@@H](C)CC)C(C)C)C(C)C)C(=O)N[C@H](C(=O)N[C@@H](CC(C)C)C(=O)N[C@H](C(=O)N[C@H](C(=O)N[C@@H](CCCCN)C(=O)N[C@@H](CCC(=O)O)C(=O)N[C@@H](CCC(=O)O)C(=O)N[C@@H](C)C(=O)N[C@@H](CO)C(=O)NCC(=O)N[C@@H](CO)C(=O)N[C@@H](CO)C(=O)N[C@H](C(=O)N[C@H](C(=O)N[C@@H](C)C(=O)N[C@@H](CCC(=O)O)C(=O)N[C@@H](CCC(=O)O)C(=O)N[C@@H](C)C(=O)N[C@@H](CCCCN)C(=O)N[C@@H](CCCCN)C(=O)O)[C@@H](C)O)C(C)C)[C@@H](C)O)[C@@H](C)CC)[C@@H](C)O [Ku3] | decreased the recombination frequency with a trend to statistical significance | significantly reduced | able to reduce MLLbcr rearrangements | reduction of MLLbcr rearrangements ([1]; HeLa/MLL nucleofected with 25 μg to 75 μg peptide per 0.5×10^6 cells, 0.5 μM doxorubicin 4 h, 72 h): up to 26%; inhibitory effect on MLLbcr rearrangements at higher concentration ([1]; HeLa/MLL, 100 μg peptide): inhibitory effect was lost; doxorubicin-induced breakage of MLLbcr (genomic PCR band intensities) [2]: protected MLLbcr from doxorubicin-induced breakage; reduction of MLLbcr rearrangements ([3]; K562/MLL nucleofected with 50 μg, 100 μg, 175 μg peptide per 1×10^6 cells, 2 μM doxorubicin 4 h): up to 35%; inhibitory effect on MLLbcr rearrangements at higher concentration ([3]; K562/MLL, >200 μg peptide): inhibitory effect was lost
2 | EIVVQDGITLITKAEASGSSVTAEEAKK [Ku3 mut1, reference compound] | no reduction | – | – | –
3 | ITKEEASGSSVTAEEAKKFLA [SEQ ID No. 4] | – | – | able to reduce MLLbcr rearrangements | –
4 | ITKEEASGSSVTAEEAKKFLAG [Ku1] | – | – | – | decrease of MLLbcr rearrangements ([3]; K562/MLL nucleofected with 300 μg peptide (only effective concentration tested), 2 μM doxorubicin 4 h): 30%
5 | VDSTTIEKSIAEVAEEQESILKKVAGGT [scrambled peptide, reference compound] | – | no reduction | – | –
